According to the supplement of paper PMC11438910:
Some of the results follow. Most of these values are background signal.

Experiments:
Experiment in all cases: fluorescence intensity of antibody binding to polysaccharide-coupled beads; higher = stronger binding
[1] = molecular target: pneumococcal polysaccharide Pn33B
[2] = molecular target: pneumococcal polysaccharide Pn33C
[3] = molecular target: pneumococcal polysaccharide Pn33D
[4] = molecular target: pneumococcal polysaccharide Pn33F
[5] = molecular target: pneumococcal polysaccharide Pn34
[6] = molecular target: pneumococcal polysaccharide Pn35A
[7] = molecular target: pneumococcal polysaccharide Pn35B
[8] = molecular target: pneumococcal polysaccharide Pn35C
[9] = molecular target: pneumococcal polysaccharide Pn35F
[10] = molecular target: pneumococcal polysaccharide Pn36
[11] = molecular target: pneumococcal polysaccharide Pn37
[12] = molecular target: pneumococcal polysaccharide Pn38
[13] = molecular target: pneumococcal polysaccharide Pn39
[14] = molecular target: pneumococcal polysaccharide Pn4
[15] = molecular target: pneumococcal polysaccharide Pn40
[16] = molecular target: pneumococcal polysaccharide Pn41A
[17] = molecular target: pneumococcal polysaccharide Pn41F
[18] = molecular target: pneumococcal polysaccharide Pn42
[19] = molecular target: pneumococcal polysaccharide Pn43
[20] = molecular target: pneumococcal polysaccharide Pn44
[21] = molecular target: pneumococcal polysaccharide Pn45
[22] = molecular target: pneumococcal polysaccharide Pn46
[23] = molecular target: pneumococcal polysaccharide Pn47A
[24] = antibody concentration 2.8593 ng/mL
[25] = antibody concentration 15.2894 ng/mL
[26] = antibody concentration 81.7561 ng/mL
[27] = antibody concentration 437.17 ng/mL
[28] = antibody concentration 2337.65 ng/mL
[29] = antibody concentration 12500 ng/mL
[30] = antibody concentration 0.1 ng/mL
[31] = antibody concentration 0.534724 ng/mL

B1: 3S41.2 (protein)
chain 1: EVQLVESGGGLVQPGGSLRLSCATSGFTFRNYWMYWFRQAPGKGLDWVSSISDSSSNTFYSDSVKGRFTISRDNAKNTLYLQMNSLRAEDTAVYYCARRPIAAATGVYWYFDLWGPGTPITVSS
chain 2: QAALTQPPSMSGSPGQSVTISCTGTSSDIGGYNRVSWYQQYPGKAPKLMIYEVSKRPSGVSDRFSGSKSGNTAALTISGLQAADEADYYCSSYAGSYTFVLFGGGTRLTVL
B1 showed a fluorescence intensity [1, 24] of 18.5 MFI, a fluorescence intensity [1, 25] of 17.5 MFI and a fluorescence intensity [1, 26] of 18.5 MFI. It also gave a fluorescence intensity [1, 27] of 18.5 MFI, a fluorescence intensity [1, 28] of 19 MFI and a fluorescence intensity [1, 29] of 29.5 MFI. The fluorescence intensity [2, 30] was 20 MFI, the fluorescence intensity [2, 31] was 19 MFI and the fluorescence intensity [2, 24] was 19.8 MFI. It also gave a fluorescence intensity [2, 25] of 18 MFI, a fluorescence intensity [2, 26] of 20.5 MFI and a fluorescence intensity [2, 27] of 19.5 MFI. For the same binder, the fluorescence intensity [2, 28] was 30.5 MFI, the fluorescence intensity [2, 29] was 96.5 MFI and the fluorescence intensity [3, 30] was 16 MFI. It also gave a fluorescence intensity [3, 31] of 16 MFI, a fluorescence intensity [3, 24] of 17 MFI and a fluorescence intensity [3, 25] of 15 MFI. It also gave a fluorescence intensity [3, 26] of 16 MFI, a fluorescence intensity [3, 27] of 18 MFI and a fluorescence intensity [3, 28] of 19.8 MFI. It also gave a fluorescence intensity [3, 29] of 38.2 MFI, a fluorescence intensity [4, 30] of 13 MFI and a fluorescence intensity [4, 31] of 14 MFI. The fluorescence intensity [4, 24] was 14.5 MFI, the fluorescence intensity [4, 25] was 13.5 MFI and the fluorescence intensity [4, 26] was 14 MFI. The fluorescence intensity [4, 27] was 16.8 MFI, the fluorescence intensity [4, 28] was 66.5 MFI and the fluorescence intensity [4, 29] was 540 MFI. For the same binder, the fluorescence intensity [5, 30] was 14 MFI, the fluorescence intensity [5, 31] was 13.2 MFI and the fluorescence intensity [5, 24] was 14 MFI. For the same binder, the fluorescence intensity [5, 25] was 15 MFI, the fluorescence intensity [5, 26] was 13.8 MFI and the fluorescence intensity [5, 27] was 15 MFI. It also gave a fluorescence intensity [5, 28] of 19 MFI, a fluorescence intensity [5, 29] of 24.5 MFI and a fluorescence intensity [6, 30] of 16.5 MFI. The fluorescence intensity [6, 31] was 16.5 MFI, the fluorescence intensity [6, 24] was 16.5 MFI and the fluorescence intensity [6, 25] was 17 MFI. For the same binder, the fluorescence intensity [6, 26] was 17.5 MFI, the fluorescence intensity [6, 27] was 18 MFI and the fluorescence intensity [6, 28] was 36.5 MFI. For the same binder, the fluorescence intensity [6, 29] was 198 MFI, the fluorescence intensity [7, 30] was 18 MFI and the fluorescence intensity [7, 31] was 18 MFI. For the same binder, the fluorescence intensity [7, 24] was 18.8 MFI, the fluorescence intensity [7, 25] was 18 MFI and the fluorescence intensity [7, 26] was 18 MFI. It also gave a fluorescence intensity [7, 27] of 19 MFI, a fluorescence intensity [7, 28] of 31.2 MFI and a fluorescence intensity [7, 29] of 124 MFI. For the same binder, the fluorescence intensity [8, 30] was 20 MFI, the fluorescence intensity [8, 31] was 19.5 MFI and the fluorescence intensity [8, 24] was 20 MFI. The fluorescence intensity [8, 25] was 20.5 MFI, the fluorescence intensity [8, 26] was 19.5 MFI and the fluorescence intensity [8, 27] was 20.2 MFI. For the same binder, the fluorescence intensity [8, 28] was 21.5 MFI, the fluorescence intensity [8, 29] was 30.5 MFI and the fluorescence intensity [9, 30] was 21 MFI. It also gave a fluorescence intensity [9, 31] of 20 MFI, a fluorescence intensity [9, 24] of 19.5 MFI and a fluorescence intensity [9, 25] of 20.5 MFI. It also gave a fluorescence intensity [9, 26] of 21 MFI, a fluorescence intensity [9, 27] of 22 MFI and a fluorescence intensity [9, 28] of 24 MFI. The fluorescence intensity [9, 29] was 28.5 MFI, the fluorescence intensity [10, 30] was 15 MFI and the fluorescence intensity [10, 31] was 15.5 MFI. For the same binder, the fluorescence intensity [10, 24] was 17 MFI, the fluorescence intensity [10, 25] was 16.5 MFI and the fluorescence intensity [10, 26] was 16 MFI. It also gave a fluorescence intensity [10, 27] of 18 MFI, a fluorescence intensity [10, 28] of 37 MFI and a fluorescence intensity [10, 29] of 168 MFI. The fluorescence intensity [11, 30] was 25.5 MFI, the fluorescence intensity [11, 31] was 25 MFI and the fluorescence intensity [11, 24] was 28 MFI. For the same binder, the fluorescence intensity [11, 25] was 25.5 MFI, the fluorescence intensity [11, 26] was 26.5 MFI and the fluorescence intensity [11, 27] was 33.5 MFI. It also gave a fluorescence intensity [11, 28] of 143 MFI, a fluorescence intensity [11, 29] of 960 MFI and a fluorescence intensity [12, 30] of 24.5 MFI. For the same binder, the fluorescence intensity [12, 31] was 25.5 MFI, the fluorescence intensity [12, 24] was 24.8 MFI and the fluorescence intensity [12, 25] was 27 MFI. For the same binder, the fluorescence intensity [12, 26] was 26.8 MFI, the fluorescence intensity [12, 27] was 26.5 MFI and the fluorescence intensity [12, 28] was 30.5 MFI. It also gave a fluorescence intensity [12, 29] of 57 MFI, a fluorescence intensity [13, 30] of 17.5 MFI and a fluorescence intensity [13, 31] of 18.8 MFI. For the same binder, the fluorescence intensity [13, 24] was 18.8 MFI, the fluorescence intensity [13, 25] was 17.5 MFI and the fluorescence intensity [13, 26] was 18.5 MFI. It also gave a fluorescence intensity [13, 27] of 19.5 MFI, a fluorescence intensity [13, 28] of 33.8 MFI and a fluorescence intensity [13, 29] of 118 MFI. For the same binder, the fluorescence intensity [14, 30] was 18 MFI, the fluorescence intensity [14, 31] was 19 MFI and the fluorescence intensity [14, 24] was 18 MFI. For the same binder, the fluorescence intensity [14, 25] was 18.5 MFI, the fluorescence intensity [14, 26] was 18.2 MFI and the fluorescence intensity [14, 27] was 20 MFI. It also gave a fluorescence intensity [14, 28] of 30.8 MFI, a fluorescence intensity [14, 29] of 52.5 MFI and a fluorescence intensity [15, 30] of 16.8 MFI. It also gave a fluorescence intensity [15, 31] of 15.5 MFI, a fluorescence intensity [15, 24] of 17 MFI and a fluorescence intensity [15, 25] of 16.8 MFI. For the same binder, the fluorescence intensity [15, 26] was 17.5 MFI, the fluorescence intensity [15, 27] was 19 MFI and the fluorescence intensity [15, 28] was 47.5 MFI. For the same binder, the fluorescence intensity [15, 29] was 250 MFI, the fluorescence intensity [16, 30] was 25 MFI and the fluorescence intensity [16, 31] was 22.5 MFI. It also gave a fluorescence intensity [16, 24] of 23.8 MFI, a fluorescence intensity [16, 25] of 22.5 MFI and a fluorescence intensity [16, 26] of 23 MFI. For the same binder, the fluorescence intensity [16, 27] was 23.5 MFI, the fluorescence intensity [16, 28] was 28 MFI and the fluorescence intensity [16, 29] was 34.2 MFI. The fluorescence intensity [17, 30] was 13.2 MFI, the fluorescence intensity [17, 31] was 13.5 MFI and the fluorescence intensity [17, 24] was 13.2 MFI. The fluorescence intensity [17, 25] was 13 MFI, the fluorescence intensity [17, 26] was 13.5 MFI and the fluorescence intensity [17, 27] was 13 MFI. It also gave a fluorescence intensity [17, 28] of 17 MFI, a fluorescence intensity [17, 29] of 28.5 MFI and a fluorescence intensity [18, 30] of 11 MFI. It also gave a fluorescence intensity [18, 31] of 11.2 MFI, a fluorescence intensity [18, 24] of 12.8 MFI and a fluorescence intensity [18, 25] of 12 MFI. It also gave a fluorescence intensity [18, 26] of 12.5 MFI, a fluorescence intensity [18, 27] of 13 MFI and a fluorescence intensity [18, 28] of 20.5 MFI. The fluorescence intensity [18, 29] was 80.8 MFI, the fluorescence intensity [19, 30] was 17 MFI and the fluorescence intensity [19, 31] was 15.5 MFI. It also gave a fluorescence intensity [19, 24] of 16 MFI, a fluorescence intensity [19, 25] of 16.5 MFI and a fluorescence intensity [19, 26] of 16 MFI. It also gave a fluorescence intensity [19, 27] of 19 MFI, a fluorescence intensity [19, 28] of 70.8 MFI and a fluorescence intensity [19, 29] of 627 MFI. For the same binder, the fluorescence intensity [20, 30] was 24.5 MFI, the fluorescence intensity [20, 31] was 26 MFI and the fluorescence intensity [20, 24] was 26 MFI. For the same binder, the fluorescence intensity [20, 25] was 24.8 MFI, the fluorescence intensity [20, 26] was 24 MFI and the fluorescence intensity [20, 27] was 27 MFI. For the same binder, the fluorescence intensity [20, 28] was 30.8 MFI, the fluorescence intensity [20, 29] was 38.2 MFI and the fluorescence intensity [21, 30] was 11.5 MFI. It also gave a fluorescence intensity [21, 31] of 11 MFI, a fluorescence intensity [21, 24] of 11.5 MFI and a fluorescence intensity [21, 25] of 10.5 MFI. For the same binder, the fluorescence intensity [21, 26] was 11 MFI, the fluorescence intensity [21, 27] was 12 MFI and the fluorescence intensity [21, 28] was 13.5 MFI. It also gave a fluorescence intensity [21, 29] of 19.2 MFI, a fluorescence intensity [22, 30] of 24 MFI and a fluorescence intensity [22, 31] of 24 MFI. For the same binder, the fluorescence intensity [22, 24] was 25 MFI, the fluorescence intensity [22, 25] was 24 MFI and the fluorescence intensity [22, 26] was 23.5 MFI. It also gave a fluorescence intensity [22, 27] of 26.5 MFI, a fluorescence intensity [22, 28] of 45 MFI and a fluorescence intensity [22, 29] of 154 MFI. The fluorescence intensity [23, 30] was 15.5 MFI, the fluorescence intensity [23, 31] was 16 MFI and the fluorescence intensity [23, 24] was 15.5 MFI. The fluorescence intensity [23, 25] was 16.5 MFI, the fluorescence intensity [23, 26] was 17.5 MFI and the fluorescence intensity [23, 27] was 17 MFI.
